Data reported in PMC4055408.

The chains behind the UniProt entries cited, without tags or fusion partners.
UniProt Q9UI95: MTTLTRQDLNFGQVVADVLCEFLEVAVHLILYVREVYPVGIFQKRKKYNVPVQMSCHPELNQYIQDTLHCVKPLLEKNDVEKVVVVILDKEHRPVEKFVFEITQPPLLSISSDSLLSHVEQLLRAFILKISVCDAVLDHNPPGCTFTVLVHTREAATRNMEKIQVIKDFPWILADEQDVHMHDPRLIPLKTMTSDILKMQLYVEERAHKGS

Target: TAP-Rev7 (human Rev7 fused at its N-terminus with a tandem affinity purification tag) (human) (UniProt Q9UI95)
Assay: affinity purification with mass spectrometry; tandem affinity purification of TAP-Rev7 from stable 293T cells (IgG-Sepharose, TEV, calmodulin-Sepharose), with or without UV 10 J/m^2; bands cut from the gel of the unirradiated sample, nano-LC/MS/MS

binding: binds
B1: ZNF828/CAMP, endogenous (protein, UniProt Q96JM3 1-812)
chain: MEAFQELRKPSARLECDHCSFRGTDYENVQIHMGTIHPEFCDEMDAGGLGKMIFYQKSAKLFHCHKCFFTSKMYSNVYYHITSKHASPDKWNDKPKNQLNKETDPVKSPPLPEHQKIPCNSAEPKSIPALSMETQKLGSVLSPESPKPTPLTPLEPQKPGSVVSPELQTPLPSPEPSKPASVSSPEPPKSVPVCESQKLAPVPSPEPQKPAPVSPESVKATLSNPKPQKQSHFPETLGPPSASSPESPVLAASPEPWGPSPAASPESRKSARTTSPEPRKPSPSESPEPWKPFPAVSPEPRRPAPAVSPGSWKPGPPGSPRPWKSNPSASSGPWKPAKPAPSVSPGPWKPIPSVSPGPWKPTPSVSSASWKSSSVSPSSWKSPPASPESWKSGPPELRKTAPTLSPEHWKAVPPVSPELRKPGPPLSPEIRSPAGSPELRKPSGSPDLWKLSPDQRKTSPASLDFPESQKSSRGGSPDLWKSSFFIEPQKPVFPETRKPGPSGPSESPKAASDIWKPVLSIDTEPRKPALFPEPAKTAPPASPEARKRALFPEPRKHALFPELPKSALFSESQKAVELGDELQIDAIDDQKCDILVQEELLASPKKLLEDTLFPSSKKLKKDNQESSDAELSSSEYIKTDLDAMDIKGQESSSDQEQVDVESIDFSKENKMDMTSPEQSRNVLQFTEEKEAFISEEEIAKYMKRGKGKYYCKICCCRAMKKGAVLHHLVNKHNVHSPYKCTICGKAFLLESLLKNHVAAHGQSLLKCPRCNFESNFPRGFKKHLTHCQSRHNEEANKKLMEALEPPLEEQQI

These are yes or no findings as the source states them, for the method shown. In cells and extracts the contact can be indirect. These calls come from enrichment with a bait or labelling near it, and not all partners need be listed.
